“Also recorded” adds a separate entry of the source. At least one structure is not confirmed: it was looked up by name or label, or the drawing left a doubt.
How the values were obtained:
paw sensitivity = settings: Neff et al., 2013; cited from earlier work
HET3 mice [1] = assay: Manual von Frey tactile sensitivity and nociception test; assay type: in vivo, mouse; settings: early- and late-intervention, hind paws
[2] = test system: axillary scWAT gene expression; assay: qPCR gene expression of axillary scWAT; assay type: in vivo, mouse
HET3 mice [3] = settings: 42 ppm encapsulated, both sexes (Miller et al., 2014); cited from earlier work
[4] = test system: NMJ occupation of medial gastrocnemius and soleus; assay: Neuromuscular junction (NMJ) immunostaining and occupation quantification; assay type: in vivo, mouse
HET3 mice [5] = assay: Age-related peripheral neuropathy in HET3 mice, overall statement; assay type: in vivo, mouse; settings: 42 ppm in diet, 8 months

CO[C@H]1C[C@@H]2CC[C@@H](C)[C@@](O)(O2)C(=O)C(=O)N2CCCC[C@H]2C(=O)O[C@H]([C@H](C)C[C@@H]2CC[C@@H](O)[C@H](OC)C2)CC(=O)[C@H](C)/C=C(\C)[C@@H](O)[C@@H](OC)C(=O)[C@H](C)C[C@H](C)/C=C/C=C/C=C/1C [rapamycin]
paw sensitivity (paw sensitivity): did not find that rapamycin had any impact | sensitivity to mechanical stimuli (von Frey) (HET3 mice [1]): no impact | scWAT Psd95 expression ([2]; HET3 mice): did not alter | scWAT Vegfa gene expression ([2]; females, early-intervention): significant increase | scWAT collagen gene expression ([2]; females, early-intervention): relatively unchanged | scWAT cytokine, Schwann cell and synapse gene expression ([2]; females, early-intervention): trend to increase | scWAT mitochondrial gene expression ([2]; females, early-intervention): either unchanged, or significantly decreased (Atp1) | scWAT Schwann cell gene expression (decreased across aging) ([2]; males): restored | scWAT Col3a1 expression ([2]; males, early-intervention): increased | scWAT Vegfa gene expression ([2]; males, early-intervention): did not | scWAT collagen genes other than Col3a1 ([2]; males, early-intervention): no other collagen genes were changed | scWAT gene expression of cytokine (Il4, Il6, Il10, Il13) and Schwann cell genes (Sox10, Mpz) ([2]; males, early-intervention): significant increases | scWAT mitochondrial gene expression ([2]; males, early-intervention): increased | scWAT synaptic gene expression ([2]; males, early-intervention, Syp statistically significant): overall increase | increase of lifespan (HET3 mice [3]): 23-26% | NMJ occupation ([4]; early-intervention group): not further affected | age-related decrease in NMJ occupation ([4]; late-intervention group): not mitigated | age-related peripheral neuropathy (HET3 mice [5]): little impact; also recorded: neither improves nor worsens; also recorded: had no effect
